This note sets out measurements from publication PMC7556880.

The chains behind the UniProt entries cited, without tags or fusion partners.
UniProt Q61039: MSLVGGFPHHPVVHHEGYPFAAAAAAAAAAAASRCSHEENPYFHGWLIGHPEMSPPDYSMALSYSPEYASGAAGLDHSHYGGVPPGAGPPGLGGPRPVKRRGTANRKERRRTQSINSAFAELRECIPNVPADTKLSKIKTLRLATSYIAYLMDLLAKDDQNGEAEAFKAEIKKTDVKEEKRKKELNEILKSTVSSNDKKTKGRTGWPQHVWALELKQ
UniProt Q0VGT2: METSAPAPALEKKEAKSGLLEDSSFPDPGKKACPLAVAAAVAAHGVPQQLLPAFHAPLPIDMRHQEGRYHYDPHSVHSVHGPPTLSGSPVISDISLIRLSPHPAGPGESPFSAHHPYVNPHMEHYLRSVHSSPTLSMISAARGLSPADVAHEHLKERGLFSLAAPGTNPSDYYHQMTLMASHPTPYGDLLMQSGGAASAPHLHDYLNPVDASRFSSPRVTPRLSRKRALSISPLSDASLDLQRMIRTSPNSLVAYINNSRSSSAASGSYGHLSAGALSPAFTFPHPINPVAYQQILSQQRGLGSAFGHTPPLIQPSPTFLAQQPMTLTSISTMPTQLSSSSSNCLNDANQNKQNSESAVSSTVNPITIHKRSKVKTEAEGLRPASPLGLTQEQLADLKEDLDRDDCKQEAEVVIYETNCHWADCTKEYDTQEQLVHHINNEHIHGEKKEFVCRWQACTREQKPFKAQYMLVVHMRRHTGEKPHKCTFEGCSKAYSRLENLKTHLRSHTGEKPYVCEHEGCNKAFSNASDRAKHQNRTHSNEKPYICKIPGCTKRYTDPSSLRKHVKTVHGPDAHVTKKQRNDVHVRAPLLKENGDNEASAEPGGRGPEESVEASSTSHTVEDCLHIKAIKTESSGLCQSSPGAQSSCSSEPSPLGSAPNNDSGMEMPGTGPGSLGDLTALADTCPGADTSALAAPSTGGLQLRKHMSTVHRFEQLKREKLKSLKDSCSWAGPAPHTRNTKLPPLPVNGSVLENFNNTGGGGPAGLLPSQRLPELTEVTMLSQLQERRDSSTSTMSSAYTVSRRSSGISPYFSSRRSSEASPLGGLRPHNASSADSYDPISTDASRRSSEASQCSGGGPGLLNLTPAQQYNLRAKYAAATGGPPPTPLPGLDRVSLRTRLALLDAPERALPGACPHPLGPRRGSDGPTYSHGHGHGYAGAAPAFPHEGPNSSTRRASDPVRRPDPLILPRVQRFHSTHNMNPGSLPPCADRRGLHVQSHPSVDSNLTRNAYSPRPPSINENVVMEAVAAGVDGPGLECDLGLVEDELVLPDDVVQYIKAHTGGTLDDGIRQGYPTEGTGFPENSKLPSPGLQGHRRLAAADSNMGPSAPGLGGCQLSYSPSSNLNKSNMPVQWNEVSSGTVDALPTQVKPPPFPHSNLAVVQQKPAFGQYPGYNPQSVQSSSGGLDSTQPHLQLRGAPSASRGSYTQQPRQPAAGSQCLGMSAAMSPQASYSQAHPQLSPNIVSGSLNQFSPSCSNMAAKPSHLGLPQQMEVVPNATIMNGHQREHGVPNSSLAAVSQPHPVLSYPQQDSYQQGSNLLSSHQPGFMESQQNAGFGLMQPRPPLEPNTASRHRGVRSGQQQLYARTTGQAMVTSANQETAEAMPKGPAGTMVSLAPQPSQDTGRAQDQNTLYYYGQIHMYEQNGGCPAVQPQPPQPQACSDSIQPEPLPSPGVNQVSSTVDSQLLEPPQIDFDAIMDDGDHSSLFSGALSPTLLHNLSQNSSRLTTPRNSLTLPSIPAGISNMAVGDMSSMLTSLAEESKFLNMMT
UniProt Q61602: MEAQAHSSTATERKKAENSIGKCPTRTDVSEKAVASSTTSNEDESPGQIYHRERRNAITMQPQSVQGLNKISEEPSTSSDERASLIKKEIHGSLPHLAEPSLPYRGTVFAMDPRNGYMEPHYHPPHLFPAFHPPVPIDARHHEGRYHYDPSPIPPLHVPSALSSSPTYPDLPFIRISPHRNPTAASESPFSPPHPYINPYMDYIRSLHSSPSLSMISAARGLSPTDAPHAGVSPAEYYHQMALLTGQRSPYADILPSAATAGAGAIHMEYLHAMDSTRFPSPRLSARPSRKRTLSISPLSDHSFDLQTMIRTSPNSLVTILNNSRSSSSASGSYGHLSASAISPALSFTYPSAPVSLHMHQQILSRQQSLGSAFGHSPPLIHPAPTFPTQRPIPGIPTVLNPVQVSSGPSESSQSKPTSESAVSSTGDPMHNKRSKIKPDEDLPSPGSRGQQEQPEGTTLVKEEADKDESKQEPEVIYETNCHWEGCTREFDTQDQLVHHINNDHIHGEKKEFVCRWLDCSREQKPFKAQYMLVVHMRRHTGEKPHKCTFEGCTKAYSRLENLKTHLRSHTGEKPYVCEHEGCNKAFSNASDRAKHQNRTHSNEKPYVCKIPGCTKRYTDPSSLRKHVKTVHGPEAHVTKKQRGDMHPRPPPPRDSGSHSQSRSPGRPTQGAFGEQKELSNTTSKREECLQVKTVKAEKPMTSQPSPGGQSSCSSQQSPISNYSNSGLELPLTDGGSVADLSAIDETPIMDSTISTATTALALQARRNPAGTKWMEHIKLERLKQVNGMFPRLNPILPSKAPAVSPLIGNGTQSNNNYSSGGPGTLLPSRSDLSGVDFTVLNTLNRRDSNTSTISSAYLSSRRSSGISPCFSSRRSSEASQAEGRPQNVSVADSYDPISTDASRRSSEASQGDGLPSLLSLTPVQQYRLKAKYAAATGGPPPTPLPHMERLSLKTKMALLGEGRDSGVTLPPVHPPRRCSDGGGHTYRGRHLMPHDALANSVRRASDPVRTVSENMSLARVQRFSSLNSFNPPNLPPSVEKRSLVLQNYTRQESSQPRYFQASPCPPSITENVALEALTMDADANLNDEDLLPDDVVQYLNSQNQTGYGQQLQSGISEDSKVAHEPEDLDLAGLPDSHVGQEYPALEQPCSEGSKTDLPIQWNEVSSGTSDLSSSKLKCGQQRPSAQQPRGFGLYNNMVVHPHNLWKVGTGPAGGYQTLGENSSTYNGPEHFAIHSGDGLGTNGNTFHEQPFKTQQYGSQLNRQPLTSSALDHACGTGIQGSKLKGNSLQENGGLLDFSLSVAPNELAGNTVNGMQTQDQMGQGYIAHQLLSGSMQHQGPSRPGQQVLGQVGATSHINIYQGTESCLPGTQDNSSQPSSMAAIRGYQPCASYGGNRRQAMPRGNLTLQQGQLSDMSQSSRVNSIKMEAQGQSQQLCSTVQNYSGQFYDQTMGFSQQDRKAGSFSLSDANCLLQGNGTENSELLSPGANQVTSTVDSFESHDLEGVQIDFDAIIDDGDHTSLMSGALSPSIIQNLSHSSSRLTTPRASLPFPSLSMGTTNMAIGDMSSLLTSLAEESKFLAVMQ

This test concerns the target Hand2 (mouse (endogenous in E10.5 MNPs)) (UniProt Q61039). The experiment in a line: co-IP; endogenous proteins; lysate of pooled E10.5 CD-1 mandibular prominences in RIPA buffer; precipitated with goat polyclonal anti-Hand2 or control goat IgG overnight at 4C, Dynabeads Protein G, three washes in RIPA; Western blot.

These are yes or no findings as the source states them, for the method shown. In cells and extracts the contact can be indirect. Some binding calls cover weakened binding; strength is not graded here.

Regarding “Gli2, full-length isoform (from UniProt Q0VGT2 1-1544)”, the binding result is reported as “no binding”.
The entry for “Gli3, full-length isoform (from UniProt Q61602 1-1583)” is “binds”.
